Data: the supplement of paper PMC12578635
Some of the results follow. No stated cut-off is given here; in the data, active = 150% or more and inactive = the rest. Most values come without repeats; read them as rough.

Test system: Staphylococcus aureus JE2-lux inside RAW 264.7 macrophages
Assay: intracellular bacterial bioluminescence relative to DMSO vehicle; higher = higher intracellular bacterial metabolic activity
Settings: 10 µM; treatment time 4 h; gentamicin 50 µg/ml

Intracellular bacterial bioluminescence, inactive:
NC(=O)c1cc2ccccc2o/c1=N\NC(=O)c1ccncc1 105%
CC(C)c1ccc(NC(=O)CCn2c(=O)oc3ccccc32)cc1 38.1%
COc1ccc(N(CC(=O)NCCc2ccccc2)C(=O)c2csnn2)cc1 106%
CCC1CCCCN1C(=O)Cn1nc(-c2cc(C)oc2C)cc(N)c1=O (stereo unspecified) 74.8%
COc1ccc(C(=O)Oc2coc(CSc3nc(C)cs3)cc2=O)cc1OC 85.1%
COc1cc2cc(C#N)c(SCC(=O)c3ccc(F)cc3)nc2cc1OC 123%
CCc1nnsc1C(=O)Nc1c(C(=O)Nc2cccc(Cl)c2)oc2ccccc12 113%
O=C(CSc1nnc2n(Cc3ccccc3)c3ccccc3n12)N1CCc2ccccc21 10.4%
Cc1ccc(NC(=O)c2ccc3nnc(SCC(=O)NCc4ccc(Cl)cc4)n3c2)cc1 70.3%
COc1ccc(NC(=O)CSc2nnc3ccc(S(=O)(=O)c4ccccc4)nn23)cc1 54.3%
C=CCOc1ccccc1NC(=O)c1ccc2c(c1)nnn2C1CCCCC1 96.2%
Cc1ccc2nc(SCC(=O)NCc3ccccc3)nc(=O)n2c1 96.4%
NC(=O)CSc1nc2ccc(N3CCOCC3)cc2c(=O)n1CCc1ccccc1 80.2%
CCN(CC)c1ncc(C(=O)Nc2ccc(OC)cc2OC)c2ccccc12 93.8%
Cn1cnc(S(=O)(=O)NCc2nnc(C(=O)Nc3ccc(F)cc3F)s2)c1 101%
COc1ccc(-n2c(-c3ccccc3)cn3c4c(=O)[nH]c(=O)n(C)c4nc23)cc1Cl 111%
O=C(CSc1nc(=O)n2ccccc2n1)Nc1cccc(Cl)c1 19.2%
Cc1cc(C)c2s/c(=N\C(=O)CN3C(=O)c4ccccc4C3=O)n(C)c2c1 86.6%
CCOC(=O)Cn1c(Cl)c(/C=N/NC(=O)c2ccc3ccccc3n2)sc1=O 104%
COc1ccc(S(=O)(=O)Nc2cccc(C(=O)Nc3nc4cc5c(cc4s3)OCO5)c2)cc1 65%
CCOC(=O)c1nc(Cl)c2c(C)c(C)n(-c3cccc(Cl)c3)c2n1 88.3%
Cn1c(=O)[nH]c(=O)c2c1nc1n2CC(COc2ccc3ccccc3c2)O1 (stereo unspecified) 82.1%
Cc1nc(SCC(=O)Nc2sc3c(c2C#N)CCCC3)c2c3c(sc2n1)CCC3 108%
CCSc1cccc(C(=O)Nc2sc3c(c2C#N)CCN(C(C)=O)C3)c1 74.7%
O=C(CCc1ccccc1)NCCn1nc(-c2cccs2)oc1=O 96.9%
O=C(COc1ncnc2ccccc12)Nc1c[nH]c2ccccc12 14.2%
Cc1ccc2nc(NC(=O)CSc3nnc4[nH]c(=O)c(C)c(C)n34)sc2c1 107%
CCOc1ccc(C(=O)NCCSc2ncc(-c3ccccc3)[nH]2)cc1 109%
COc1cccc(C(=O)Nc2c3c(nn2-c2ccccc2C)CS(=O)C3)c1 (stereo unspecified) 75.4%
CCOc1ccccc1/C=C1\Oc2c(ccc(O)c2CN(CC)CC)C1=O 91%
CC(Nc1nc2c(S(=O)(=O)c3ccc(Cl)cc3)nnn2c2ccccc12)c1ccccc1 (stereo unspecified) 120%
Cc1cc(Nc2ccc3c(c2)OCO3)n2c(n1)nc1ccccc12 129%
COc1ccc(S(=O)(=O)Nc2cccc(-c3nc4cccnc4s3)c2)cc1F 93.3%
CN1CCN(C(CNC(=O)c2ccc(Cl)cc2)c2ccc3c(c2)OCO3)CC1 (stereo unspecified) 108%
CC(C)NC(=O)C1CCN(C(=O)c2cc(-c3ccccn3)[nH]n2)CC1 93.5%
O=c1oc2ccccc2cc1-c1csc(Nc2nc3cc4c(cc3s2)OCO4)n1 101%
O=C(CSc1nnc(NC(=O)C2CCCCC2)s1)Nc1nccs1 95.5%
CC(=O)C1C(c2cccc(C)c2)NC(=O)NC1(O)C(F)(F)F (stereo unspecified) 87.2%
N#CC1=C(SCC(=O)Nc2ccc(Br)cc2)NC(=O)CC1c1ccc2c(c1)OCO2 (stereo unspecified) 82.4%
O=C(CN(C(=O)c1csnn1)c1cnc2ccccc2c1)NCc1ccc(F)cc1 66.2%
CC(=O)Nc1c(-c2ccc(Cl)cc2)c(C)nn1-c1ccc(C(=O)Nc2nccs2)cc1 72.1%
Cn1c(=O)c2c(nc(SCC(=O)Nc3sc4c(c3C#N)CCCC4)n2C)n(C)c1=O 91.6%
Cc1cc(F)ccc1NC(=O)Cn1cccc1-c1nc(-c2ccccc2)cs1 92.2%
O=C(O)CC1SC(=O)N(c2ccccc2)C1=O (stereo unspecified) 110%
O=C(Cn1c(=O)c2ccccc2n2nncc12)NCc1ccccc1Cl 56%
Clc1ccc(C2C=C(c3ccco3)Nc3ncnn32)cc1 (stereo unspecified) 94.1%
Cc1ccc2c(c1)C1CC(C)(O2)N(c2ccc(C(=O)O)cc2)C(=O)N1 (stereo unspecified) 115%
COc1ccc(-c2ccnc3[nH]n(-c4nc(C)cc(C)n4)c(=O)c23)cc1 103%
CCOC(=O)c1cc(C)nc2c1c(=O)n(Cc1ccccc1Cl)c(=O)n2C 124%
COc1cccc(NC(=O)CCc2c(C)[nH]c3nc(NCc4ccccc4)nn3c2=O)c1 115%
NC(=O)CCSc1nnc(SCC(=O)c2ccccc2)s1 74%
Cn1nc(C(C)(C)C)cc1C(=O)Nc1ccccc1NC(=O)c1ccccn1 73.9%
Cc1nc(Nc2ccc(NC(=O)c3ccc4c(c3)OCO4)cc2)cc(N(C)C)n1 91%
Cc1ccc(Cc2cnc(NC(=O)c3cc4ccccc4c(=O)o3)s2)cc1 91.3%
O=C(NC1CCN(C(=O)Nc2cccc(Cl)c2)CC1)c1ccccc1 108%
N#Cc1ccc(C(=O)N(CCN2CCOCC2)c2nc3ccccc3s2)cc1 116%
O=C(CSc1nc(O)c2nc[nH]c2n1)OCc1ccccc1 114%
Cc1ccc(N(Cc2ccc3c(c2)CN(S(=O)(=O)c2cccc(C)c2)CCO3)C(=O)C(C)C)cc1 41.2%
COc1ccc(-c2noc(N3CCC(C(=O)N4CCN(c5cc(Cl)ccc5C)CC4)CC3)n2)cc1 124%
Cc1ccc2cc(C#N)c(N3CCN(C(=O)c4ccc(F)cc4)CC3)nc2c1 101%
COc1ccccc1CNC(=O)c1sc2nc(C)nc(N3CCCC3)c2c1C 64.6%
Cc1cc(C)c2cc(CN(Cc3ccc4c(c3)OCO4)C(=O)c3ccco3)c(Cl)nc2c1 92.9%
CCN(Cc1ccccc1)c1ncnc2c1cnn2-c1cccc(Cl)c1 70.3%
Cc1ccc2cc(C)c3nn(CCNC(=O)Cc4c(C)nc(C)nc4O)c(=O)n3c2c1 101%
CCc1ccc2c(c1)C(O)(C1SC(N)=NC1=O)C(=O)N2 (stereo unspecified) 92.3%
Cc1cccn2c(=O)c3cc(S(=O)(=O)c4ccc(Cl)cc4)c(=N)n(Cc4ccncc4)c3nc12 115%
Cc1ccc(C)c2sc(N(Cc3ccccn3)C(=O)c3cccc(S(C)(=O)=O)c3)nc12 115%
COc1ccc(OC)c2[nH]c(=O)c(CCN3C(=O)c4ccccc4C3=O)cc12 116%
Cc1cccc(-c2noc(C)c2C(=O)NCCn2ccnc2C)c1 116%
O=C(NCc1ccccn1)C(=O)NCC(c1ccco1)N1CCc2ccccc21 (stereo unspecified) 90%
O=S(=O)(c1ccc(Cl)cc1)c1nnn2c1nc(NCc1ccc3c(c1)OCO3)c1sccc12 112%
COc1cccc(-c2cc(=O)n3c4ccccc4n(CC(=O)NC4CCCC4)c3n2)c1 110%
O=C(Nc1ccccc1-c1ccccc1)N1CCC(c2nc3ccccc3o2)CC1 82.3%
COCCNc1nc(-c2nnc(-c3cccc(C)c3)o2)nc2ccccc12 55.9%
c1ccc(CN2CCN(c3ncnc4[nH]cnc34)CC2)cc1 96.3%
Cn1c(CCC(=O)NC(c2ccccc2)c2cccnc2)nc2ccccc21 (stereo unspecified) 113%
Cc1[nH]c2ccccc2c1C(Nc1ccccn1)c1cccs1 (stereo unspecified) 93.3%
COc1ccccc1N1CCN(c2nc(C)c(CCC(C)C)c(=O)[nH]2)CC1 102%
Cc1cccc(-c2nc3c(c(SCC(=O)N4CCOCC4)n2)Cc2c(CO)cnc(C)c2O3)c1 105%
Cc1ccc(Nc2cc(N3CCN(C(=O)c4cccs4)CC3)nc(C)n2)cc1 34.7%
O=C(Cn1cnc2c(cnn2CCO)c1=O)N1CCC(Cc2ccccc2)CC1 121%
COc1ccc(Cl)cc1C(=O)Nn1cnc2c(cnn2-c2ccccc2)c1=O 124%
COC(=O)C1=C(C)OC(N)=C(C#N)C1c1ccc(OC)cc1 (stereo unspecified) 107%
CCOc1ccc(-c2cccc(NC(=O)c3ccco3)c2)nn1 77.5%
Cc1cc2oc(=O)cc(-c3cc4ccccc4o3)c2cc1O 123%
O=C(O)CSc1nnc2c(n1)[nH]c1cccc(C(F)(F)F)c12 112%
CC(C)CCNC(=O)Nc1c(-c2ccncc2)[nH]c2c(Cl)cccc12 81.6%
NC(=O)c1oc2ccccc2c1NC(=O)Cc1ccc([N+](=O)[O-])cc1 95.9%
C#CCn1/c(=N/C(=O)c2cccc(S(C)(=O)=O)c2)sc2cc(C)c(C)cc21 100%
Cn1nc(C2CC2)cc1C(=O)Nc1cccc(-c2csnn2)c1 85.1%
CC1=C(C(=O)Nc2ccccc2C)C(c2ccccc2)NC(=O)N1 (stereo unspecified) 104%

An excerpt from above in order of SMILES length, smallest number first.
Intracellular bacterial bioluminescence, inactive:
CC1=C(C(=O)Nc2ccccc2C)C(c2ccccc2)NC(=O)N1 (stereo unspecified) 104%
CCOc1ccccc1/C=C1\Oc2c(ccc(O)c2CN(CC)CC)C1=O 91%
Cc1cc(C)c2cc(CN(Cc3ccc4c(c3)OCO4)C(=O)c3ccco3)c(Cl)nc2c1 92.9%
